The values below come from article PMC3180244.

Chains of the proteins cited; added tags and fusions are not shown.
UniProt Q921E6: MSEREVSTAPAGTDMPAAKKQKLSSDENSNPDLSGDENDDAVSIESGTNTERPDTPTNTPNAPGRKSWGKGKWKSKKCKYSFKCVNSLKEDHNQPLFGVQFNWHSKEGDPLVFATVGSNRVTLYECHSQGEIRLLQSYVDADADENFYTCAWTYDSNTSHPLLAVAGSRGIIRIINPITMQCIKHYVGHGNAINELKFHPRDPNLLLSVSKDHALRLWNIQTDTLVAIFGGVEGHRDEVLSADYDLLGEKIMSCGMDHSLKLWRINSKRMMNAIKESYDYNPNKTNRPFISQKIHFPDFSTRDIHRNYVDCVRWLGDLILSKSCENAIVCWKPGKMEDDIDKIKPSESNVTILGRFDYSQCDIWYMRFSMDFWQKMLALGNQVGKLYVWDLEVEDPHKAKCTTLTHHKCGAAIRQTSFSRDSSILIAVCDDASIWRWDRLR
UniProt Q80U70: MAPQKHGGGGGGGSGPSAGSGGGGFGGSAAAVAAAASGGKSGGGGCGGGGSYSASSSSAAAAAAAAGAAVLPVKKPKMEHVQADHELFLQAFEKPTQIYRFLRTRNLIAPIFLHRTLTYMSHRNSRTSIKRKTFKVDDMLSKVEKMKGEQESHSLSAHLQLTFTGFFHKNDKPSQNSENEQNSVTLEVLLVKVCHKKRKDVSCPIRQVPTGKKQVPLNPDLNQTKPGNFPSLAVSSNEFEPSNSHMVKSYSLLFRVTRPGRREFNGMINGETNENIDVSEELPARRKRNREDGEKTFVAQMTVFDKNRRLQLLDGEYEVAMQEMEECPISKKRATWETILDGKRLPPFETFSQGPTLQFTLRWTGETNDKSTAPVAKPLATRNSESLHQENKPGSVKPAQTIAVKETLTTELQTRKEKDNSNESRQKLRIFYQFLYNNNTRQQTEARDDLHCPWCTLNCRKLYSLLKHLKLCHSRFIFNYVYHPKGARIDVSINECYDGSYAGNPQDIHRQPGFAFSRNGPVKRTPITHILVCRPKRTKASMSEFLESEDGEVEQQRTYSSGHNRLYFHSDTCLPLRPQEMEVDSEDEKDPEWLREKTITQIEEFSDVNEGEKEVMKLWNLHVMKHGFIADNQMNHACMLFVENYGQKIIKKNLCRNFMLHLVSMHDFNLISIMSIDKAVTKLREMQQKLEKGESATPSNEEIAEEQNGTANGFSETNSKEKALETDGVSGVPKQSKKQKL
UniProt P70351: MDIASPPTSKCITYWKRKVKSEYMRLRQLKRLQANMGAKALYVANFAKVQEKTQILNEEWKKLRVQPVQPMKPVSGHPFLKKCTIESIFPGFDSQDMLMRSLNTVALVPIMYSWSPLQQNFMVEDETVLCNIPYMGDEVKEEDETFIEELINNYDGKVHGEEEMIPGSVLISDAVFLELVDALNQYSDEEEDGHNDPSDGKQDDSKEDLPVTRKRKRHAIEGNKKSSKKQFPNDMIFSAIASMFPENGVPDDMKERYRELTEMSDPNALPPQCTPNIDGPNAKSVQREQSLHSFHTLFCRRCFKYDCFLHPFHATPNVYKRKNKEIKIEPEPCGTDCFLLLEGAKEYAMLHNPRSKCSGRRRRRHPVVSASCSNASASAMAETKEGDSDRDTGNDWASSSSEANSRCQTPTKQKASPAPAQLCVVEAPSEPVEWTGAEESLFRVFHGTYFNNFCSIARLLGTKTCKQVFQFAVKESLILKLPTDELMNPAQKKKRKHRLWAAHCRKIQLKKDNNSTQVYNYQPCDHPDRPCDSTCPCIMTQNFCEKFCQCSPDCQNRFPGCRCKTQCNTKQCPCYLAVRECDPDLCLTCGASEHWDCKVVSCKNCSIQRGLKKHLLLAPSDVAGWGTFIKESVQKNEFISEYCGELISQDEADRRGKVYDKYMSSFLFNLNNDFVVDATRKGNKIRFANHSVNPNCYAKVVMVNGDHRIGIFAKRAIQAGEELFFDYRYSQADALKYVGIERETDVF
UniProt Q61188: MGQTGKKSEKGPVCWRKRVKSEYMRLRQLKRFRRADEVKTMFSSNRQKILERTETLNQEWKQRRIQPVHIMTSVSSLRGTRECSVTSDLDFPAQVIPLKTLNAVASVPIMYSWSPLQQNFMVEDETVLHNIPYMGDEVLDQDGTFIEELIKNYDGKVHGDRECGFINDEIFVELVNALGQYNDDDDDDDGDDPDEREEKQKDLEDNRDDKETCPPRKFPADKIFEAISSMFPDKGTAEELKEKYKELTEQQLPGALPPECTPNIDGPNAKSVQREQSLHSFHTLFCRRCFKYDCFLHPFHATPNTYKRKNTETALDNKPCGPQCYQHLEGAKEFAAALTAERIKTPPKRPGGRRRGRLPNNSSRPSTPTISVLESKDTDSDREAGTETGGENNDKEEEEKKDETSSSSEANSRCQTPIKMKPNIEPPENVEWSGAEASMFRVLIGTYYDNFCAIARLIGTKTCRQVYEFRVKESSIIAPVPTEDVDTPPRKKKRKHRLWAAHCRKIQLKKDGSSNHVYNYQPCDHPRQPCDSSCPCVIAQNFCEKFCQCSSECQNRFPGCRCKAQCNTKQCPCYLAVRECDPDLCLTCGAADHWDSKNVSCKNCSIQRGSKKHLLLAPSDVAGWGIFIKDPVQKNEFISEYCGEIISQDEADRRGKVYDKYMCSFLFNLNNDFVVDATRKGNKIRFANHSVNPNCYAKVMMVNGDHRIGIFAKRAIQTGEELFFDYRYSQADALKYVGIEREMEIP

Assay [1] addresses Eed (mouse (endogenous in C2C12)) (UniProt Q921E6). The assay can be described thus: SEC; nuclear extract of C2C12 myotubes (DM, 72 h) immunodepleted of Ezh2 (five serial depletions with AC22 EZH2 antibody on Protein-A beads), Superose 6 PC 3.2/30 in IP (300) buffer; fractions analysed by immunoblot. (Size exclusion chromatography separates by hydrodynamic size, large species first.)

Assay [2] concerns the target Suz12 (mouse (endogenous in C2C12)) (UniProt Q80U70). Described as above.
Assay [3] concerns the target Eed (mouse (endogenous in C2C12)) (UniProt Q921E6). The assay can be described thus: SEC; nuclear extracts of C2C12 myoblasts (GM) and myotubes (DM, 72 h) on Superose 6 PC 3.2/30 in IP (300) buffer (50 mM Tris-HCl pH 7.5, 300 mM NaCl, 5% glycerol, 0.2% Igepal, 1 mM DTT); fractions analysed by immunoblot.
Assay [4] has as its target Suz12 (mouse (endogenous in C2C12)) (UniProt Q80U70). The description is as above.

Results are given in words; binding and its absence hold for the method and conditions named. Some binding calls cover weakened binding; strength is not graded here.

Turning to Ezh1 (from UniProt P70351 1-747), the binding result in assay [1], in assay [2], in assay [3] and in assay [4] was “binds” throughout.
For the substance Ezh2 (from UniProt Q61188 1-746), the binding result in assay [3] is reported as “binds”.
Turning to Suz12 (from UniProt Q80U70 1-741), the binding result in assay [1] and in assay [3] was “binds” throughout.
